Measurements reported in article PMC12368045.
No constants are given. Whether binding was seen depends on the method and setting. Binding seen in cells or lysates may run through a third protein. Some binding calls cover weakened binding; strength is not graded here. Where a sequence is shown, tags or fusion partners need not be part of it.

Amino acid sequences for entries named in this document (tags omitted).
UniProt Q8CFI0: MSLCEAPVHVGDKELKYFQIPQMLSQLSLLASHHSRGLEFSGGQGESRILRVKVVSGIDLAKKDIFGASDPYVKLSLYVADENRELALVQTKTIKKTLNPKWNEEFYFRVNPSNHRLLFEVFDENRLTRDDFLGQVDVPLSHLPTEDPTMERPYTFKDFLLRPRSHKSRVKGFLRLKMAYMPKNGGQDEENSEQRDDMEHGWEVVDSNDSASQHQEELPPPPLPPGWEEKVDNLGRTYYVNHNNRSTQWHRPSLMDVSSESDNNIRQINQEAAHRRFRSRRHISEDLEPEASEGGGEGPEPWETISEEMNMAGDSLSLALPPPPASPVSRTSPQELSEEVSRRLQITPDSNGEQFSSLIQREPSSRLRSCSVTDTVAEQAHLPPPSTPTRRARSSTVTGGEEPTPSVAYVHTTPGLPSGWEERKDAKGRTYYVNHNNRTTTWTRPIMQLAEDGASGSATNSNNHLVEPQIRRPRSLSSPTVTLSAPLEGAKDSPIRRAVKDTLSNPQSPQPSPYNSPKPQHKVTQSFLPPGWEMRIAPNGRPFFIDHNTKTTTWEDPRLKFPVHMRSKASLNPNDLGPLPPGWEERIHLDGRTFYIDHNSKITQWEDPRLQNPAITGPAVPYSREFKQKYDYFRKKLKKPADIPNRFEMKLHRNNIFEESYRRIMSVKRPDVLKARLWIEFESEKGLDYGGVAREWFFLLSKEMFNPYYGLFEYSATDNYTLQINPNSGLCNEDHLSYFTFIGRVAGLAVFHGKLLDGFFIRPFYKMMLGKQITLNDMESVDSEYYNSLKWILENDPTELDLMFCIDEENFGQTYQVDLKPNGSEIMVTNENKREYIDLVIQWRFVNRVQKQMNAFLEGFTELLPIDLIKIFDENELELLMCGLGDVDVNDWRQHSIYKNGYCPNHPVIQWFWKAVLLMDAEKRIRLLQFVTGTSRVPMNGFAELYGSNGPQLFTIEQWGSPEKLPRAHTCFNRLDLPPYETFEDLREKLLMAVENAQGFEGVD

T1: PLSCR1-GFP (WT, mouse PLSCR1 in pEGFP-C2) (mouse) (UniProt Q9JJ00)
T1 sequence: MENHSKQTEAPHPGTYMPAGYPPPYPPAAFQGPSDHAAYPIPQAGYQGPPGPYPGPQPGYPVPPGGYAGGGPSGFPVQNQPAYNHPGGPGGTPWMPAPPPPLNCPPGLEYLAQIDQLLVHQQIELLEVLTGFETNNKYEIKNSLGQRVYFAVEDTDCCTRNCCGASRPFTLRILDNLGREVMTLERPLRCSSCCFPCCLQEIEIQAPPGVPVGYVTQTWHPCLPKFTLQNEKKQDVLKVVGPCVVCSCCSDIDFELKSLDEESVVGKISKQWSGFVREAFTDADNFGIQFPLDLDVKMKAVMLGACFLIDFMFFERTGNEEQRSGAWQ


Columns and labels:
[1] = biological target: T1, PLSCR1-GFP (WT, mouse PLSCR1 in pEGFP-C2) (mouse); assay: co-IP; HEK293T co-transfected with NEDD4-2-myc and PLSCR1-GFP (WT or PY mutant); MG132 and CQ for 4 h; immunoprecipitation with anti-GFP, anti-myc or anti-Nedd4-2 on protein G-Sepharose; immunoblot
[2] = biological target: NEDD4-2-myc (WT) (UniProt Q8CFI0); assay: as above

Molecule	binding [1]	binding [2]
NEDD4-2-myc (WT) (from UniProt Q8CFI0 1-1004) (enzyme)	binds	–
PLSCR1-GFP (WT, mouse PLSCR1 in pEGFP-C2) (protein, UniProt Q9JJ00 1-328) MENHSKQTEAPHPGTYMPAGYPPPYPPAAFQGPSDHAAYPIPQAGYQGPPGPYPGPQPGYPVPPGGYAGGGPSGFPVQNQPAYNHPGGPGGTPWMPAPPPPLNCPPGLEYLAQIDQLLVHQQIELLEVLTGFETNNKYEIKNSLGQRVYFAVEDTDCCTRNCCGASRPFTLRILDNLGREVMTLERPLRCSSCCFPCCLQEIEIQAPPGVPVGYVTQTWHPCLPKFTLQNEKKQDVLKVVGPCVVCSCCSDIDFELKSLDEESVVGKISKQWSGFVREAFTDADNFGIQFPLDLDVKMKAVMLGACFLIDFMFFERTGNEEQRSGAWQ	–	binds
